{"source": "PubChem BioAssay AID504467", "about": "(National Center for Advancing Translational Sciences (NCATS), 2011)", "note": "Screen size: about 330,000 compounds; about 7,700 (2.3%) were called active. Inconclusive means that the source gave no clear call. Such entries were picked first, then a sample of the others. The call rests on the fitted dose curve; in most records, active means well fitted inhibition curve with a large enough effect; inconclusive means small, poorly fitted or top-dose-only effect, or effect the other way; inactive means flat fitted curve, though single readings scatter. Where the call is inconclusive, the potency comes from a doubtful curve fit."}
{"experiment": "qHTS screen for small molecules that inhibit ELG1-dependent DNA repair in human embryonic kidney (HEK293T) cells expressing luciferase-tagged ELG1; further: nearly all actives have a fitted effect of over 55% in size; further: potency means the concentration at half of the fitted maximal effect; on activity change, negative = inhibition: on the % scale 0 is the no-effect control and ±100 the full control effect", "conditions": "HEK293T ELG1-luciferase reporter, luminescence, 16 h, DNA damage induced by 5-fluorouridine; activity change, negative = inhibition: at 46.1 µM (top of the series)", "outline": "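Overnight (16 hr) co-exposure of 2,000 cells/well to 5-fluorouridine and compound at 37 °C preceded detection. Luciferase was quantified via ONE-Glo luminescence; loss of signal denotes inhibition.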"}
{"molecule": "CCC(Cc1ccccc1)NCc1c(C(=O)O)c(C)n(Cc2ccccc2)c1C", "note": "(configuration not stated)", "Potency": "inconclusive: 29.1 µM [inhibitor, single point]"}
{"molecule": "O=C(Cn1nnc(-c2ccccc2)n1)Nc1cccc(S(=O)(=O)N2CCOCC2)c1", "activity change, negative = inhibition": "inactive: 2.75%"}
{"molecule": "CCOC(=O)CN1C(=O)C(O)(CC(=O)c2cccc(OC)c2)c2ccccc21", "note": "(configuration not stated)", "activity change, negative = inhibition": "inactive: -4.04%"}
{"molecule": "COCCn1cnnc1SCC(=O)Nc1ccc(N2CCCCC2)cc1", "Potency": "inconclusive: 20.6 µM [activator, single point]"}
{"molecule": "O=C(Cn1ncc2c3ccccc3n(Cc3ccc(Cl)cc3)c2c1=O)NCCCN1CCCC1=O", "Potency": "inconclusive: 23.1 µM [inhibitor, single point]"}
{"molecule": "COCCNC(=S)N/N=C/c1c2ccccc2cc2ccccc12", "Potency": "inconclusive: 29.1 µM [inhibitor, single point]"}
{"molecule": "COCn1c(-c2ccc(OC)cc2)nc2ccccc21", "Potency": "inconclusive: 16.4 µM [activator, partial curve]"}
{"molecule": "Cc1cc(C)cc(NCCC#N)c1", "Potency": "inconclusive: 29.1 µM [activator, single point]"}
{"molecule": "Cc1ccc(CNC(=O)C2CCCN(Cc3cnn(-c4ccccc4)c3-n3cccc3)C2)cc1", "note": "(configuration not stated)", "Potency": "inconclusive: 18.4 µM [inhibitor, single point]"}
{"molecule": "Cn1nc(C(=O)Nc2ccc(-n3cnnn3)cc2)c2ccccc2c1=O", "Potency": "inconclusive: 25.9 µM [inhibitor, partial curve, poor fit]"}
{"molecule": "O=C(Nc1cccc(-c2cn3c(n2)SCC3)c1)c1ccc2c(c1)OCO2", "Potency": "inconclusive: 20.6 µM [inhibitor, partial curve]"}
{"molecule": "CCCC(C(=O)NNC(=O)c1cc(C)oc1C)c1ccccc1", "note": "(configuration not stated)", "Potency": "inconclusive: 25.9 µM [activator, single point]"}
{"molecule": "Cc1cc(C)n(-c2cc(N3CCN(S(=O)(=O)c4ccc5ccccc5c4)CC3)ccc2[N+](=O)[O-])n1", "activity change, negative = inhibition": "inactive: 12%"}
{"molecule": "CC(C)(C)c1ccc(/C=N/OCC(=O)NCc2ccccc2)cc1", "Potency": "inconclusive: 23.1 µM [inhibitor, partial curve]"}
{"molecule": "COCCCNC(=S)N1CCN(c2nc(-c3ccc(F)cc3)cs2)CC1", "Potency": "inconclusive: 35.5 µM [inhibitor, single point]"}
{"molecule": "CCS(=O)(=O)Nc1ccc(-c2cc(-c3ccccc3)c3cc(C)ccc3n2)cc1", "Potency": "inconclusive: 29.1 µM [inhibitor, single point]"}
{"molecule": "Cc1cccc(NC2=C(Cl)C(=O)OC2NC(=O)c2ccccc2)c1", "note": "(configuration not stated)", "activity change, negative = inhibition": "inactive: -1.97%"}
{"molecule": "CCCN1CCN(C(=S)Nc2ccc(SC(F)F)cc2)CC1", "activity change, negative = inhibition": "inactive: -9.71%"}
{"molecule": "COC(=O)c1cccc(NC(=O)Nc2ccc(Cl)cc2)c1", "Potency": "inconclusive: 23.1 µM [activator, partial curve, poor fit]"}
{"molecule": "COc1ccc(C(=O)N(C)C(C)c2ccon2)cc1OC1CCN(C(C)C)CC1", "note": "(configuration not stated)", "activity change, negative = inhibition": "inactive: 13.9%"}
{"molecule": "COc1cccc(NC(=O)CC2(CC(=O)O)CCCC2)c1", "Potency": "inconclusive: 13 µM [activator, partial curve, poor fit]"}
{"molecule": "O=C(c1ccc([N+](=O)[O-])s1)N1CCN(c2ccccn2)CC1", "Potency": "inconclusive: 23.1 µM [inhibitor, single point]"}
{"molecule": "Cc1ccc(-c2nnn(CC(=O)N(c3ccccc3)C(C(=O)NCC3CCCO3)c3ccc(Cl)cc3)n2)cc1", "note": "(configuration not stated)", "activity change, negative = inhibition": "inactive: 7.44%"}
{"molecule": "CCOc1cc(/C=C2\\COc3ccccc3C2=O)ccc1OCC(=O)N(C)C", "Potency": "inconclusive: 29.1 µM [inhibitor, single point]"}
{"molecule": "CC(CN(C)Cc1ccccc1)OC(=O)c1cccc(F)c1", "note": "(configuration not stated)", "Potency": "inconclusive: 32.6 µM [activator, partial curve, poor fit]"}
{"molecule": "CCOc1ccc(C(=O)Nc2ccc(-c3nc4ccccc4[nH]3)cc2)cc1[N+](=O)[O-]", "Potency": "inconclusive: 29.1 µM [activator, single point]"}
{"molecule": "COc1ccc(CN2CCN(S(=O)(=O)c3ccccc3)CC2)c(OC)c1", "activity change, negative = inhibition": "inactive: -7.56%"}
{"molecule": "O=C(Nc1ccc(-c2csc(Nc3ccc(Cl)cc3)n2)cc1)c1ccccc1", "activity change, negative = inhibition": "inactive: 17.9%"}
{"molecule": "O=S(=O)(c1ccccc1)N(CC1CO1)c1cc(Cl)ccc1Cl", "note": "(configuration not stated)", "activity change, negative = inhibition": "inactive: 0.437%"}
{"molecule": "C/C(=N\\NS(=O)(=O)c1ccccc1)c1ccccc1", "activity change, negative = inhibition": "inactive: 6.88%"}
{"molecule": "CCc1cc(C(=O)N2CCCC(CCC(=O)N3CCN(c4ccccn4)CC3)C2)no1", "note": "(configuration not stated)", "Potency": "inconclusive: 23.1 µM [inhibitor, partial curve, poor fit]"}
{"molecule": "CC1(C)CC(=O)C(C=NCC2CCN(C(=S)Nc3cccc(Cl)c3)CC2)=C(O)C1", "Potency": "inconclusive: 13 µM [inhibitor, partial curve, poor fit]"}
{"molecule": "CC(C)c1ccc(NC(=O)COc2ccccn2)cc1", "Potency": "inconclusive: 20.6 µM [activator, partial curve]"}
{"molecule": "CC1=C(C(=O)OCc2ccccc2)C(c2ccc(C)o2)C2=C(CCCC2=O)N1", "note": "(configuration not stated)", "Potency": "inconclusive: 29.1 µM [inhibitor, single point]"}
{"molecule": "O=C(Nc1nnc(-c2ccc(F)cc2)s1)c1c(F)cccc1Cl", "Potency": "inconclusive: 9.2 µM [activator, partial curve, poor fit]"}
{"molecule": "COc1ccc2[nH]c(=O)c(CNc3ccc(C)cc3C)cc2c1", "activity change, negative = inhibition": "inactive: 0%"}
{"molecule": "CCOc1cccc(-c2c(C(=O)N/N=C(\\C)c3ccccn3)nnn2-c2nonc2N)c1", "Potency": "inconclusive: 0.517 µM [inhibitor, single point]"}
{"molecule": "COc1ccc(OC)c(NC(=O)CSc2nnnn2-c2ccccc2F)c1", "Potency": "inconclusive: 25.1 µM [inhibitor, single point]"}
{"molecule": "Cc1nc2ccccc2c(C)c1CC(=O)N(C)CC(=O)Nc1cccc(F)c1", "activity change, negative = inhibition": "inactive: -22.3%"}
{"molecule": "Cc1ccc(C)c(NC(=O)C(Sc2nc3ccc(C)cc3[nH]2)c2ccccc2)c1", "note": "(configuration not stated)", "Potency": "inconclusive: 23.1 µM [inhibitor, single point]"}
{"molecule": "N#Cc1sc2nc(-c3ccccc3)cc(-c3ccco3)c2c1N", "activity change, negative = inhibition": "inactive: 11.6%"}
{"molecule": "O=C(/C=C/Nc1ccccc1C(F)(F)F)c1ccco1", "Potency": "inconclusive: 5.8 µM [activator, partial curve]"}
{"molecule": "Cc1occc1C(=O)N/N=C/c1cccnc1", "Potency": "inconclusive: 13 µM [activator, partial curve]"}
{"molecule": "Cn1c(C(=O)N2CCN(C(=O)c3ccco3)CC2)cc2c(=O)n3ccccc3nc21", "Potency": "inconclusive: 35.5 µM [inhibitor, single point]"}
{"molecule": "CCOc1ccc(N2CC(C(=O)Nc3cccc(S(=O)(=O)N4CCCCC4)c3)CC2=O)cc1", "note": "(configuration not stated)", "Potency": "inconclusive: 23.1 µM [inhibitor, single point]"}
{"molecule": "CCOC(=O)[C@H]1[C@H]2COc3ccc(Cl)cc3[C@@H]2N2C(=O)CN(Cc3ccc(F)cc3)C(=O)[C@@]12C", "Potency": "inconclusive: 29.1 µM [inhibitor, single point]"}
{"molecule": "CCCCCc1cc(=O)oc2c(C(CCN(CC)CC)c3cc(OC)c(OC)c(OC)c3)c(OC)cc(OC)c12", "note": "(configuration not stated)", "activity change, negative = inhibition": "inactive: -4.05%"}
{"molecule": "CCCCN(C(=O)C1=CC=CN2CCS(=O)(=O)N=C12)c1ccccc1", "Potency": "inconclusive: 32.6 µM [activator, single point]"}
{"molecule": "COc1ccc(CCNC(=O)C2CCN(S(=O)(=O)c3ccc4nc5c(c(C(=O)O)c4c3)CCCC5)CC2)cc1OC", "activity change, negative = inhibition": "inactive: -4.3%"}
{"molecule": "Cc1ccc(NC(=O)Cc2noc3ccccc23)c(C)c1", "Potency": "inconclusive: 14.6 µM [activator, partial curve, poor fit]"}
{"molecule": "COC1=C(C)C(O)=C(C(=O)/C=C/c2ccccc2)C(=O)C1(C)C", "Potency": "inconclusive: 29.1 µM [inhibitor, single point]"}
{"molecule": "Clc1ccc(OCc2nc(-c3ccc(Br)o3)no2)cc1", "Potency": "inconclusive: 23.1 µM [activator, single point]"}
{"molecule": "CCOc1ccc(C(=O)Nc2cc(C)ccn2)cc1", "Potency": "inconclusive: 0.651 µM [activator, partial curve]"}
{"molecule": "COc1cccc(NC(=O)COC(=O)/C=C/c2c(C)nn(-c3ccccc3)c2C)c1", "Potency": "inconclusive: 16.4 µM [inhibitor, partial curve]"}
{"molecule": "O=C(Cc1ccc(NS(=O)(=O)c2ccc(F)cc2)cc1)NCc1ccccc1", "Potency": "inconclusive: 14.6 µM [inhibitor, partial curve]"}
{"molecule": "O=C(COC(=O)CSc1ccc([N+](=O)[O-])cc1)NCCc1ccccc1", "activity change, negative = inhibition": "inactive: 16.5%"}
{"molecule": "CCc1ccc(NC(=O)C2(C)Cc3ccccc3C(=O)O2)cc1", "note": "(configuration not stated)", "Potency": "inconclusive: 20.6 µM [activator, partial curve]"}
{"molecule": "CCn1c(CNc2ccc(OC)cc2)nnc1SCC(=O)N1CCCc2ccccc21", "activity change, negative = inhibition": "inactive: -7.84%"}
{"molecule": "C/C(CC(=O)Nc1ccc(N(C)C)cc1)=N\\NC(=O)c1ccccc1F", "Potency": "inconclusive: 18.3 µM [activator, single point]"}
{"molecule": "O=C(CSc1nc2ccccc2o1)NCC1CCCO1", "note": "(configuration not stated)", "activity change, negative = inhibition": "inactive: 2.12%"}
{"molecule": "CC1CCN(C2=NC(=O)/C(=C/c3cn[nH]c3-c3ccccc3)S2)CC1", "Potency": "inconclusive: 29.1 µM [inhibitor, single point]"}
{"molecule": "O=C1c2ccccc2C(=O)N1c1ccc(-c2nc3ccccc3o2)cc1", "Potency": "inconclusive: 5.8 µM [activator, full curve]"}
{"molecule": "O=C(NCC1CCCO1)Nc1ccccc1", "note": "(configuration not stated)", "Potency": "inconclusive: 29.1 µM [activator, partial curve, poor fit]"}
{"molecule": "Cc1ccccc1OCC(=O)Nc1ccc(Cc2ccncc2)cc1", "Potency": "inconclusive: 20.6 µM [inhibitor, partial curve, poor fit]"}
{"molecule": "O=C(c1cc(COc2ccc3c(c2)CCCC3)on1)N1CCCC1", "Potency": "inconclusive: 16.4 µM [activator, partial curve]"}
{"molecule": "COc1ccc2c(c1)CC/C2=N\\OC(=O)c1ccccc1OC", "Potency": "inconclusive: 23.1 µM [activator, single point]"}
{"molecule": "CN1CCc2c(sc3nc(SCC(=O)NCc4ccco4)n(-c4ccccc4)c(=O)c23)C1", "Potency": "inconclusive: 13 µM [activator, partial curve]"}
